Reference: patent US20040176301A1
These are yes or no findings as the source states them, for the method shown. Some results given as binding are weak or reduced against the parent protein; the word gives no strength. Tags and fused reporters may be left off the sequences shown.

Biological target: Cyclin A (UniProt P20248)
Experiment: competitive cyclin A binding ELISA

binding: binds
B1: GST-pRb(772-928) (protein, UniProt P06400 772-928, looked up, not shown: a dimerising Fc or GST)
chain: ASTRPPTLSPIPHIPRSPYKFPSSPLRIPGGNIYISPLKSPYKISEGLPTPTKMTPRSRILVSIGESFGTSEKFQKINQMVCNSDRVLKRSAEGSNPPKPLKKLRFDIEGSDEADGSKHLPGESKFQQKLAEMTSTRTRMQKQKMNDSMDTSNKEEK
